In article PMC6446838:
No constants are given. Whether binding was seen depends on the method and setting. In cells and extracts the contact can be indirect. Here binding means that the protein was enriched with, or labelled near, the bait; the list need not be complete.

Chains of the proteins cited; added tags and fusions are not shown.
UniProt P33176: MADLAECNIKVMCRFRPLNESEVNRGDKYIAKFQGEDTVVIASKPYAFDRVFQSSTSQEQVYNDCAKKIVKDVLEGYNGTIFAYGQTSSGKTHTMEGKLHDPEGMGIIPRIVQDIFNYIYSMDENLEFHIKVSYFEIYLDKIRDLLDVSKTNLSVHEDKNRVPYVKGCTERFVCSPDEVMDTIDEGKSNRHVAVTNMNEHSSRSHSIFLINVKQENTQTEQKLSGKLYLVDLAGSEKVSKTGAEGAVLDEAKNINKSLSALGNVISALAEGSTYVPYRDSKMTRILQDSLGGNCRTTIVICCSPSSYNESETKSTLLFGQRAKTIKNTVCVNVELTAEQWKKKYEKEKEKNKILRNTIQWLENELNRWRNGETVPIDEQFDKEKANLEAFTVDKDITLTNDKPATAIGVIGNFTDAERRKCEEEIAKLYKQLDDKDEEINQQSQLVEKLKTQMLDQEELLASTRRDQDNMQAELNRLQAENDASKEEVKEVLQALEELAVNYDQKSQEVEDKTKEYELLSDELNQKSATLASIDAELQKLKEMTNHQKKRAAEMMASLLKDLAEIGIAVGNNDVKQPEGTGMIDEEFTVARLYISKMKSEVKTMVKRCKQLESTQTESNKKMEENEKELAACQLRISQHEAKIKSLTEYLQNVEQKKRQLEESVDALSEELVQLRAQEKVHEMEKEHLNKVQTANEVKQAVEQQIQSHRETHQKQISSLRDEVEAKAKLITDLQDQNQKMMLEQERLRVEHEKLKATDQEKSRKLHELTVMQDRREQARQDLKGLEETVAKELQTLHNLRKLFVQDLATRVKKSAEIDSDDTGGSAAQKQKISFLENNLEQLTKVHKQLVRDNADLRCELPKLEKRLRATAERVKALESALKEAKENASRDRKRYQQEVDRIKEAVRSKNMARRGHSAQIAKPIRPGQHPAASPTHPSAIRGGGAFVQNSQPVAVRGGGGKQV
UniProt Q14244: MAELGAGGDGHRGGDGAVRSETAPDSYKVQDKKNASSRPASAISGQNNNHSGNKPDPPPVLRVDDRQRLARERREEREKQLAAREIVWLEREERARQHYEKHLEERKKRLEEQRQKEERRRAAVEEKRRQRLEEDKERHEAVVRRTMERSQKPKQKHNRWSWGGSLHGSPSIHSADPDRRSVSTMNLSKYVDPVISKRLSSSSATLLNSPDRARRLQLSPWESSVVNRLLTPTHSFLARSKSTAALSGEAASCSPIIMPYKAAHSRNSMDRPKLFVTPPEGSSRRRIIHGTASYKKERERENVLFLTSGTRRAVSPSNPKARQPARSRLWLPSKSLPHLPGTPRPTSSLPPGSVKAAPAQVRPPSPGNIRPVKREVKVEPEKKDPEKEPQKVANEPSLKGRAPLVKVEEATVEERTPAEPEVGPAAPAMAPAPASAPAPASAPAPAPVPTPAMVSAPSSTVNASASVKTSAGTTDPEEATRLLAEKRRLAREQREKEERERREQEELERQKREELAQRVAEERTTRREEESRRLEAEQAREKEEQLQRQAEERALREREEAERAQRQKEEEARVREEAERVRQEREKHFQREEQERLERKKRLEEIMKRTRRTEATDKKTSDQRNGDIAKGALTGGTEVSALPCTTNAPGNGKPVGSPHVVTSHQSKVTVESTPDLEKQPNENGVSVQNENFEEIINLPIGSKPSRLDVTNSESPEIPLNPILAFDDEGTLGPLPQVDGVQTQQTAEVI

Key:
[1] = biological target: full-length KIF5B-GFP with C-terminal Strep-tag (human) (UniProt P33176); test: affinity purification with mass spectrometry + pull-down; as a2, but the ionic strength of the washing buffer was increased (high-salt wash buffer with 1.5 M NaCl)
[2] = biological target: full-length KIF5B-GFP with C-terminal Strep-tag (human) (UniProt P33176); test: affinity purification with mass spectrometry + pull-down; Strep-tagged kinesin-GFP purified from HEK293T lysate on StrepTactin beads, washed with a low-ionic-strength buffer; copurifying endogenous proteins found by mass spectrometry and Western blotting

binding [1]: binds weakly | binding [2]: binds
Substance: MAP7, endogenous in HEK293T cells (from UniProt Q14244 1-749)
